A short description of this series: Measurement of saturation solubility of the paclitaxel solid dispersion. Type of series: physicochemical. The note with it: paclitaxel dissolved in 1 ml distilled water, room temperature, vortex 5 hrs, left about 24 hr, 0.45 μm filtrate, HPLC.

`CC(=O)O[C@H]1C(=O)[C@@]2(C)[C@H]([C@H](OC(=O)c3ccccc3)[C@]3(O)C[C@H](OC(=O)[C@H](O)[C@@H](NC(=O)c4ccccc4)c4ccccc4)C(C)=C1C3(C)C)[C@]1(OC(C)=O)CO[C@@H]1C[C@@H]2O` [Control, Paclitaxel]: the “Degree of saturated solubility” value stood at 0.57 ppm.

Source of the values: patent US20060078619A1, “Method for the preparatin of paclitaxel solid dispersion by using the supercritical fluid process and paclitaxel solid dispersion prepared thereby” (HANMI PHARM CO., LTD., priority 2002, published 2006).
